# Laboratory results from patent publication US20120129791A1, “STIMULATOR OF GENITAL, SEXUAL AND REPRODUCTIVE FUNCTION” (<<BIO PEPTID>> COMPANY LIMITED, priority 2009, published 2012).
# Part of at least one peptide drawing is inferred or uncertain, most often the ends. Where no end group is shown, it is not given here.
# Test system: women with sexual dysfunction not caused by other illnesses
# Experiment: Quantified SFW scale, Group II women with sexual dysfunction
# Type: in vivo, human
# [1] = Group II (n=10), before 1 (10%)
# [2] = Group II (n=10), before 3 (30%)
# [3] = Group II (n=10), before 4 (40%)
# [4] = Group II (n=10), before 6 (60%)
# [5] = Group II (n=10), before 7 (70%)
# [6] = Group II (n=10), before treatment 3.5
# [7] = Group II, after the course of treatment
substance,measurement,setting,value
TKPRPGP [Thr-Lys-Pro-Arg-Pro-Gly-Pro],Cases in which the effect set in,Group II,no more than 90%
same,"Days of taking the drug on which the effect sets in, in general",Group II,7 to 11 days
same,Effectiveness during a long-term course,Group II,did not increase after Day 10
same,"General physical state after sexual acts (n = 33), mean time for onset of effect",Group II,7.0 days
same,"Level of sexual activity (n = 27), mean time for onset of effect",Group II,11.0 days
same,"Mood after sexual acts (n = 33), mean time for onset of effect",Group II,9.0 days
same,"Onset of orgasm (n = 33), mean time for onset of effect",Group II,10.0 days
same,Patients in whom libido was increased with a score of 2,Group II,10%
same,"Reinforcement of sexual function on the quantified SFW scale, in general",Group II,1 score
same,Women in whom sexual activity increases,Group II,40%
same,Women with reinforced mental component of the copulation cycle,Group II,70.0-90.0%
same,Women with reinforced orgasmic component,Group II,70.0%
same,Women with reinforced secretor component,Group II,60.0%
same,"Attitude toward sexual activity, mean time for onset of effect",Group II (n=10),11.0 days
same,"Libido, mean time for onset of effect",Group II (n=10),10.0 days
same,"Lubrication, mean time for onset of effect",Group II (n=10),7.0 days
same,"Libido, after treatment","Group II (n=10), SFW scale, before treatment 3.5",5.0 points
same,"Attitude toward sexual activity score 5 (intense enjoyment): patients after treatment, n (%)","Group II (n=10), before 0 (0%)",3 (30%)
same,"Level of sexual activity score 5 (daily): patients after treatment, n (%)","Group II (n=10), before 0 (0%)",2 (20%)
same,"Libido score 4 (weekly): patients after treatment, n (%)","Group II (n=10), before 0 (0%)",2 (20%)
same,"Libido score 5 (daily): patients after treatment, n (%)","Group II (n=10), before 0 (0%)",7 (70%)
same,"Libido score 6 (several times a day): patients after treatment, n (%)","Group II (n=10), before 0 (0%)",0 (0%)
same,"Lubrication score 5 (sets in rapidly): patients after treatment, n (%)","Group II (n=10), before 0 (0%)",2 (20%)
same,"Mood after sex acts score 5 (feeling of gratitude toward man): patients after treatment, n (%)","Group II (n=10), before 0 (0%)",6 (60%)
same,"Onset of orgasm score 5 (more than 80% of the sex acts): patients after treatment, n (%)","Group II (n=10), before 0 (0%)",7 (70%)
same,"Attitude toward sexual activity score 2 (aversion to the sex act): patients after treatment, n (%)",[1],0 (0%)
same,"Attitude toward sexual activity score 4 (enjoyment depends on menesis): patients after treatment, n (%)",[1],7 (70%)
same,"Lubrication score 2 (rarely emerges): patients after treatment, n (%)",[1],0 (0%)
same,"Level of sexual activity score 4 (weekly): patients after treatment, n (%)",[2],7 (70%)
same,"Libido score 2 (yearly): patients after treatment, n (%)",[2],0 (0%)
same,"Lubrication score 3 (with protracted stimulation): patients after treatment, n (%)",[2],1 (10%)
same,"General physical state after sex acts score 3 (unfulfilled arousal): patients after treatment, n (%)",[3],0 (0%)
same,"Onset of orgasm score 3 (single occurrences): patients after treatment, n (%)",[3],0 (0%)
same,"General physical state after sex acts score 4 (sensation of release of arousal): patients after treatment, n (%)",[4],60 (60%)
same,"Lubrication score 4 (depends on presence of attraction): patients after treatment, n (%)",[4],7 (70%)
same,"Onset of orgasm score 4 (in half of the sex acts): patients after treatment, n (%)",[4],3 (30%)
same,"Level of sexual activity score 3 (monthly): patients after treatment, n (%)",[5],1 (10%)
same,"Libido score 3 (monthly): patients after treatment, n (%)",[5],1 (10%)
same,"Mood after sex acts score 4 (recognition of duty fulfilled): patients after treatment, n (%)",[5],3 (30%)
same,"Attitude toward sexual activity score 3 (indifference toward the sex act): patients after treatment, n (%)","Group II (n=10), before 8 (80%)",0 (0%)
same,"Mood after sex acts score 3 (complete indifference): patients after treatment, n (%)","Group II (n=10), before 30 (30%)",1 (10%)
same,"Attitude toward sexual activity, after treatment",[6],5.0 points
same,"Lubrication, after treatment",[6],5.0 points
same,"Attitude toward sexual activity: patients with onset of effect, n (%)","Group II (n=10), day 1",0 (0%)
same,"General physical state after sexual acts: patients with onset of effect, n (%)","Group II (n=10), day 1",0 (0%)
same,"Level of sexual activity: patients with onset of effect, n (%)","Group II (n=10), day 1",0 (0%)
same,"Lubrication: patients with onset of effect, n (%)","Group II (n=10), day 1",0 (0%)
same,"Mood after sexual acts: patients with onset of effect, n (%)","Group II (n=10), day 1",0 (0%)
same,"Onset of orgasm: patients with onset of effect, n (%)","Group II (n=10), day 1",0 (0%)
same,"Libido: patients with onset of effect, n (%)","Group II (n=10), day 1 of drug administration",0 (0%)
same,"Attitude toward sexual activity: patients with onset of effect, n (%)","Group II (n=10), day 5",2 (20%)
same,"General physical state after sexual acts: patients with onset of effect, n (%)","Group II (n=10), day 5",3 (30%)
same,"Level of sexual activity: patients with onset of effect, n (%)","Group II (n=10), day 5",1 (10%)
same,"Libido: patients with onset of effect, n (%)","Group II (n=10), day 5",1 (10%)
same,"Lubrication: patients with onset of effect, n (%)","Group II (n=10), day 5",3 (30%)
same,"Mood after sexual acts: patients with onset of effect, n (%)","Group II (n=10), day 5",2 (20%)
same,"Onset of orgasm: patients with onset of effect, n (%)","Group II (n=10), day 5",2 (20%)
same,"Attitude toward sexual activity: patients with onset of effect, n (%)","Group II (n=10), day 10",7 (70%)
same,"General physical state after sexual acts: patients with onset of effect, n (%)","Group II (n=10), day 10",8 (80%)
same,"Level of sexual activity: patients with onset of effect, n (%)","Group II (n=10), day 10",4 (40%)
same,"Libido: patients with onset of effect, n (%)","Group II (n=10), day 10",9 (90%)
same,"Lubrication: patients with onset of effect, n (%)","Group II (n=10), day 10",7 (70%)
same,"Mood after sexual acts: patients with onset of effect, n (%)","Group II (n=10), day 10",5 (50%)
same,"Onset of orgasm: patients with onset of effect, n (%)","Group II (n=10), day 10",7 (70%)
same,"Attitude toward sexual activity: patients with onset of effect, n (%)","Group II (n=10), day 15",7 (70%)
same,"General physical state after sexual acts: patients with onset of effect, n (%)","Group II (n=10), day 15",8 (80%)
same,"Level of sexual activity: patients with onset of effect, n (%)","Group II (n=10), day 15",4 (40%)
same,"Libido: patients with onset of effect, n (%)","Group II (n=10), day 15",9 (90%)
same,"Lubrication: patients with onset of effect, n (%)","Group II (n=10), day 15",7 (70%)
same,"Mood after sexual acts: patients with onset of effect, n (%)","Group II (n=10), day 15",5 (50%)
same,"Onset of orgasm: patients with onset of effect, n (%)","Group II (n=10), day 15",7 (70%)
same,Aversion to sex,[7],reliably disappeared in all the patients
same,Patients in whom libido occurred daily,[7],70%
same,Patients in whom the sex act began to provide intense enjoyment,[7],30%
same,Patients participating in sex acts as often as weekly and daily,[7],90%
same,Patients with a feeling of satisfaction and a pleasant fatigue at conclusion,[7],40%
same,Patients with orgasm at almost every sex act,[7],40%
same,Patients with orgasm in half the cases of sexual contact,[7],60.0%
same,"Level of sexual activity (n = 27), after treatment","Group II, before treatment 3.0",4.0 points
same,"Mood after sexual acts (n = 33), after treatment","Group II, before treatment 3.0",4.5 points
same,"General physical state after sexual acts (n = 33), after treatment","Group II, before treatment 3.5",4.5 points
same,"Onset of orgasm (n = 33), after treatment","Group II, before treatment 3.5",4.5 points
